PubChem BioAssay AID504784 – Drosophila RNAi Screening Center | 2011
In all, the deposit lists about 17,000 reagents; this is an unselected part of those that have a named target and a result. 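Each column is one replicate's B-score; the combined score over replicates was not deposited, so single values may mislead.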 Names joined by + are all predicted targets of the reagent. No sequences are given here.

Aim: 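Search for regulators of lipid droplet storage in oleate-fed fly cells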 (primary screen)
System: Drosophila Kc167 embryonic cells
Reagents: long dsRNA against Drosophila genes, about 250 ng dsRNA per well
Time to read-out: 4 days
Challenge: cells fed 400 µM oleic acid bound to BSA
Detection: 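Cells imaged and segmented; ratio of lipid droplet area to nuclear area, log-transformed, then normalised as a B-score over the screen; higher means more stored lipid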
Direction: droplet/nuclear area B-score: higher = more stored lipid (overstorage)

target gene	dsRNA	droplet/nuclear area B-score, replicate 1	droplet/nuclear area B-score, replicate 2	droplet/nuclear area B-score, replicate 3
Prosalpha6	DRSC03401	1.97	1.48	
Tsp26A	DRSC03135	-1.9	-0.355	
CG4744	DRSC06887	-1.24	0.527	
CG31415	DRSC22409	0.0137	0.699	
CG2211	DRSC08559	-0.534	1.17	
CG5819	DRSC04520	-0.259	1.25	
Cmtr1	DRSC18400	1.62	-0.0283	
CG7548	DRSC10874	0.248	-0.344	
CG16736	DRSC15145	0.747	-0.146	
CG6462	DRSC10641	1.55	0.255	
Lmpt	DRSC09450	-0.109	0.0167	-2.18
Lmpt	DRSC09864	-1.28	1.51	
Lmpt	DRSC09865	0.314	0.133	-0.16
Lmpt	DRSC09866	0.516	-1.06	
Lmpt	DRSC11107	-0.912	-0.72	
Lmpt	DRSC21738	0.0662	-0.827	
Lmpt	DRSC22921	3.06	3.64	
CG34458	DRSC06925	0.0197	0.0864	
CG6830	DRSC16124	-0.308	-0.762	
CG33459	DRSC05615	3.29	-1.12	
Nak	DRSC03379	-0.0351	0.976	
fiz	DRSC20188	-1.65	-0.185	-0.08
Blos2	DRSC10147	-0.739	-0.842	
CG9550	DRSC03262	-0.84	-0.601	
Tengl1	DRSC00481	-0.902	-0.0111	
Enoph	DRSC12201	1.2	-0.308	
Fum2	DRSC18345	-0.917	-0.939	
CG12054	DRSC14467	0.43	-0.688	
CG12054	DRSC23137	0.00143	-2.6	
CG14411	DRSC19597	0.389	0.562	
boca	DRSC06408	-2.38	-0.0326	
hry	DRSC11353	2.26	-2.55	
hry	DRSC23249	0.556	0.788	
Mms19	DRSC12188	2.16	-0.374	
Lnpk	DRSC07254	-0.102	2.63	
CG11634	DRSC03700	0.576	-0.176	
Drl-2	DRSC05393	-0.0761	-0.88	
Drl-2	DRSC06155	1.27	-0.692	
Drl-2	DRSC06858	2.88	0.89	
Obp50c + Obp50b	DRSC05482	-0.0432	-0.59	
pit	DRSC17025	0.498	0.045	
pit	DRSC22798	-0.049	-0.525	
Rad17	DRSC16811	1.06	4.36	
lva	DRSC18403	-0.0131		
Rsod	DRSC15424	-0.0892	0.475	
CG8516	DRSC16437	-0.853	-2.14	
Drgx	DRSC00278	-0.0117	-2.13	
Drgx	DRSC00537	1.52	-0.223	
mei-S332	DRSC04704	0.31	0.428	
CG12121	DRSC17816	-0.494	0.0367	1.76
Ugt37A3	DRSC15937	-1.11	0.78	
Rh6	DRSC16823	-1.01	2.04	
CG17760	DRSC06694	-0.219	0.0281	
Txl	DRSC11310	-1.94	-1.93	
CG15529	DRSC15066	-0.37	2.33	
CG9426	DRSC03219	1.95	0.0265	
CG42512 + CG32573	DRSC19532	0.336	-0.0272	
CG42512 + CG32573	DRSC19906	-0.958	0.45	
CG42512 + CG32573	DRSC22782	0.101	-0.917	
Ccn	DRSC09504	-2.55	0.0724	
Ccn	DRSC09506	0.416	1.49	
Ccn	DRSC10062	-0.263	-0.972	-0.389
Ccn	DRSC10063	-0.846	-0.00918	
SelT	DRSC02732	3.15	-0.142	
Hs6st	DRSC14348	-1.26	0.45	
Hs6st	DRSC15182	-0.853	2.06	
Hs6st	DRSC15581	0.693	0.803	0.152
Hs6st	DRSC21732	-1.05	-0.437	
CG13887	DRSC08357	2.12	1.2	
CG32284	DRSC08025	0.561	0.698	
Svip	DRSC08982	-0.628	0.424	
CG10182	DRSC14202	1.74	0.326	
to	DRSC17086	0.52	1.55	
CG6553	DRSC07002	2.16	1.31	
mthl9	DRSC08506	-0.684	-2.49	
Pcmt	DRSC12363	-0.851	-0.0616	
CG7328	DRSC10812	-0.112	-0.772	
CG5498	DRSC11608	0.411	0.0956	-0.502
CG4815	DRSC15653	-3	0.423	
Dgkepsilon	DRSC07399	1.01	1.31	
CG2841	DRSC17699	-0.0538	-0.537	
CG2841	DRSC18824	-0.551	-0.0408	
CG2841	DRSC22106	-0.229	0.616	
